# Hit rate of the full screen: of about 340,000 compounds, about 170 (0.05%) were called active. This list was built around the results that the source calls inconclusive (neither active nor inactive); the mix of calls is not that of the screen. Calls follow the shape of the dose curve; as a rule, active = well fitted inhibition curve with a large enough effect in the signal ratio, with a control signal flat (not every such curve was filed as active); inconclusive = small, poorly fitted or top-dose-only effect, or effect the other way, or a change in a side signal; inactive = flat fitted curve, though single readings scatter; the % refers to the signal ratio. A potency beside an inconclusive call is a rough fit, not a confirmed value.
# Assay: qHTS Assay to Find Inhibitors of Chronic Active B-Cell Receptor Signaling;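 as to activity change, negative = inhibition: plate controls were basal doxycycline-induced cells for no effect and cells given 10 µM MG132 for full effect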
# Conditions: ABC-DLBCL IkBa-CBG/CBR reporter, luminescence ratio (green luciferase fused to IkBa over red control in TMD8 lymphoma cells), 4 h; activity change, negative = inhibition: at 46.1 µM (top of the series) unless noted
# Outline: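 TMD8 ABC-DLBCL cells carrying doxycycline-inducible green luciferase fused to IkappaBalpha plus unfused red luciferase were exposed to compounds (up to 46 uM) for 4 hrs at 37C. Activity came from the overlap-corrected green/red luminescence ratio.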
# Potency is read from the fitted curve at half-maximal effect.
SMILES,Potency,"activity change, negative = inhibition"
COC(=O)C(NC(=O)c1ccc(F)cc1)(Nc1ncc(S(=O)(=O)c2ccc([N+](=O)[O-])cc2)s1)C(F)(F)F (configuration not stated),"inconclusive: 14.1 µM [rising, partial curve, poor fit]",
CCOc1ccc(NC(=O)Nc2cc(OCC(F)(F)F)cc(OCC(F)(F)F)c2)cc1,,inconclusive: -5.88%
CCCCn1c(N)c(N(CCOC)C(=O)CSCc2ccc(C)cc2)c(=O)[nH]c1=O,,inconclusive: -0.0548%
OC(CNCCNc1ncccc1C(F)(F)F)Cn1ccc2ccccc21 (configuration not stated),,inconclusive: -18.7%
CC(NCC(=O)Nc1ccccc1C(=O)NC1CC1)c1cccs1 (configuration not stated),,inactive
O=C1C2C(C(=O)N1CCc1ccccc1)C1C=CC2C12CC2 (configuration not stated),"inconclusive: 14.6 µM [rising, partial curve, poor fit]",
CCOC(=O)Cc1csc(NC(=O)c2ccc(NC(C)=O)cc2)n1,"inconclusive: 14.6 µM [falling, partial curve, poor fit]",
CCOC(=O)CN1CCc2c(C)nc3c(-c4ccc(OC)c(OC)c4)cnn3c21,,inconclusive: 12.6%
COc1ccc(OCCCC(=O)NCCc2ccccc2)cc1,,inconclusive: 4.78%
COc1ccc(NC(=O)c2cc(C(C)C)on2)cc1OC,"inconclusive: 20 µM [falling, partial curve]",
COCC(=O)N(C)C1(c2nnnn2CCOC(=O)Nc2cccc3ccccc23)CCCC1,,inconclusive: 3.13%
NCCCCCC(=O)N/N=C/c1coc2ccccc2c1=O,,inactive
NC(=S)n1[nH]c(-c2ccc([N+](=O)[O-])cc2)c(N=Nc2cccc(Cl)c2)c1=O,"inconclusive: 7.08 µM [falling, full curve]",
N=c1n(Cc2ccccc2Cl)c2ccccc2n1CC(O)c1ccco1 (configuration not stated),,inconclusive: -6.08%
O=C(O)CCc1ccc(-c2cccs2)n1-c1ccc(C(=O)O)cc1,"inconclusive: 28.2 µM [falling, single point]",
CCN(CC)S(=O)(=O)c1ccc(C(=O)Nc2nnc(C(C)C)s2)cc1,,inactive
Cc1n[nH]c(=S)n1/N=C/c1ccc(OCc2ccc(Cl)cc2)cc1,"inconclusive: 5.62 µM [falling, partial curve, poor fit]",
O=C(CNC(=O)c1ccc(Br)cc1)NC1CC1,,inactive
O=C(CN(C(=O)CNC(=O)c1cccs1)c1ccccc1F)NC1CCCCC1,,inconclusive: -13%
O=[N+]([O-])c1ccc2nc(-c3ccccn3)[nH]c2c1,,inconclusive: 0.045%
O=C1C(Cl)=C(NCc2cccnc2)C(=O)c2ccccc21,,inconclusive: 9.6%
COc1cc(OC)cc(C(=O)N2CC(=O)Nc3ccccc32)c1,"inconclusive: 11.2 µM [falling, partial curve]",
COc1ccccc1Oc1coc2cc(OC(=O)N3CCOCC3)ccc2c1=O,,inconclusive: 1.4%
CCc1ccc(NC(=S)/N=C(\N)Nc2nc(C)c3cc(CC)ccc3n2)cc1,,inactive
CC(C)c1ccc(NC(=O)C2CCCCN2S(=O)(=O)c2ccccc2)cc1 (configuration not stated),,inconclusive: -2.61%
COc1cc(-c2nc3cnccn3c2NC(C)(C)CC(C)(C)C)ccc1O,"inconclusive: 20 µM [falling, single point]",

SMILES,Potency,"activity change, negative = inhibition"
COc1cc(NC(=O)c2c(OC)cccc2OC)ccc1NC(=O)c1cc2ccccc2o1,,inconclusive: 5.45%
O=C(O)CCC(=O)N1N=C(c2ccccc2)CC1c1ccc(Br)cc1 (configuration not stated),,inactive
COC(=O)C1CCCN1C(=O)COc1ccc(Cl)cc1Br (configuration not stated),,inconclusive: 6.57%
CCc1ccccc1NC(=O)CSc1nnc([C@@H]2CCCN2C(=O)OC(C)(C)C)o1,,inconclusive: 3.05%
Cc1nc2ccccc2c2oc(C(=O)NCCCN3CCCC(C)C3)cc12 (configuration not stated),,inconclusive: 8.28%
CCN(CC)CCCN=C1N[C@@H](c2cccc(C(F)(F)F)c2)C(C(=O)OC)=C(C)N1CC,"inconclusive: 23.1 µM [falling, partial curve, poor fit]",
Cc1ccc(NC(=O)c2cc(C)n(-c3ccccc3)c2C)cc1,"inconclusive: 23.1 µM [falling, partial curve]",
Cc1nc(NCc2ccco2)c2c(C)c(C)sc2n1,"inconclusive: 8.2 µM [rising, partial curve, poor fit]",
O=C(COc1cc2oc(=O)c3c(c2cc1Cl)CCC3)NCC(O)c1ccccc1 (configuration not stated),,inactive
COc1ccc(CCn2c(=N)c(S(=O)(=O)c3ccc(Cl)cc3)cc3c(=O)n4ccccc4nc32)cc1,,inactive
NC(=O)c1nsc(C(=O)N(c2ccc(F)cc2)C(C(=O)NCC2CCCO2)c2c[nH]c3ccccc23)c1N (configuration not stated),,inactive
CC(=O)Nc1ccc(C2=NNC(=Nc3ccc(S(=O)(=O)N4CCOCC4)cc3)SC2)cc1,,inconclusive: 11.8%
O=C(OCC1COc2ccccc2O1)c1c(F)cccc1F (configuration not stated),,inconclusive: 5.2%
Cc1ccc(OCc2ccccc2Br)c([N+](=O)[O-])n1,,inconclusive: -9.99%
CCOc1ncccc1C(=O)Nc1ccc(F)c(F)c1,,inconclusive: 12%
Cc1ccc(-c2nc(C)c(C(=O)O)s2)cc1,"inconclusive: 1.58 µM [falling, partial curve, poor fit]",
CC(C)Oc1ccc(C(=O)N/N=C/c2ccc(-c3ccc(S(=O)(=O)Nc4ncccn4)cc3)o2)cc1,,inconclusive: -20.9%
C=CCOC(=O)C1=C(C)NC(SC)=C(C#N)C1c1cccs1 (configuration not stated),,inconclusive: -7.18%
Cc1ccc(-c2cc(C(=O)Nc3ccc4c(c3)OCCO4)c3ccccc3n2)cc1,,inactive
CCCCOC(=O)c1nnc(-c2ccccc2)o1,"inconclusive: 22.4 µM [falling, single point]",
CCOc1cc(N2CCOCC2)c(OCC)cc1NC(=O)CSc1ncccn1,,inconclusive: -0.115%
O=C(NC(=S)Nc1cccc([N+](=O)[O-])c1)c1ccccc1,"inconclusive: 31.6 µM [falling, single point]",
CCOC(=O)c1c(C)n(-c2ccccc2)c2ccc(OCCN(C)C)cc12,"inconclusive: 20 µM [falling, partial curve, poor fit]",
COc1ccc(CNC(=O)c2cnn3c(C)c(Cc4ccc(F)cc4)c(C)nc23)cc1,,inactive
COc1ccc(C(=O)Cn2cnc3ccccc3c2=O)cc1,"inconclusive: 22.4 µM [falling, partial curve, poor fit]",
CCC(=O)Oc1ccc(-c2nc(-c3cccnc3)no2)cc1,,inconclusive: -18.8%

# Full records, looked up by structure.
# COc1ccc(C(=O)Cn2cnc3ccccc3c2=O)cc1 in the list: Potency: inconclusive: 22.4 µM [falling, partial curve, poor fit]
# Cc1ccc(-c2nc(C)c(C(=O)O)s2)cc1 in the list: Potency: inconclusive: 1.58 µM [falling, partial curve, poor fit]
# COc1ccc(CNC(=O)c2cnn3c(C)c(Cc4ccc(F)cc4)c(C)nc23)cc1 in the list: activity change, negative = inhibition: inactive
# NCCCCCC(=O)N/N=C/c1coc2ccccc2c1=O in the list: activity change, negative = inhibition: inactive

# Later entries:

SMILES,Potency,"activity change, negative = inhibition"
CN(C)c1ccc(NC(=O)c2ccc(Cn3cc([N+](=O)[O-])cn3)cc2)cc1,,inconclusive: 8.6%
O=C(NC(=S)Nc1cccc(C(F)(F)F)c1)c1ccc2nonc2c1,,inactive
O=C(NC1CC1)c1ccc(-c2nc3ccccc3s2)s1,"inconclusive: 7.94 µM [falling, partial curve, poor fit]",
COc1cc(OC)c(OC)cc1CNC(=O)c1ccc(COc2ccccc2)cc1,,inactive
Cc1nn(-c2ccccc2)c(Cl)c1C(=O)N1CCN(c2ncnc3c2cnn3-c2ccccc2)CC1,,inactive
O=C(Nc1cccc(NC(=O)c2ccco2)c1)c1cnccn1,"inconclusive: 14.6 µM [falling, partial curve]",
COc1ccccc1C(=O)Nc1ccc(S(=O)(=O)Nc2cc(C)nc(C)n2)cc1,,inconclusive: 5.19%
CCCCOCCCNC(=O)c1ccc(NC(C)=O)cc1,,inconclusive: -2.08%
CCc1sc(C(=O)Nc2ccc(F)cc2C)cc1C,"inconclusive: 20.6 µM [falling, partial curve]",
CCOC(=O)c1cnn(-c2ccccc2)c1-n1cccc1C(=O)C(=O)Nc1ccccc1C(F)(F)F,,inactive
COc1ccc(C(C)(C)NC(=O)C2CCC(=O)N(C3CCCC3)C2)cc1OC (configuration not stated),,inactive
Cc1ccc(N2C(=O)N(CC(=O)C(C)(C)C)c3ccccc3S2(=O)=O)cc1,,inconclusive: 9.01%
Cc1ccc(N2C(=O)C3CCC(C)(C2=O)C3(C)C)cc1 (configuration not stated),,inconclusive: 10.3%
c1ccc(Cn2c(CNc3nc4ccccc4n3CCN3CCCCC3)nc3ccccc32)cc1,"inconclusive: 3.66 µM [falling, full curve, poor fit]",
COc1ccc(C(=O)NCCc2ccc(F)cc2)cc1OC,,inconclusive: -21.6%
CCOC(=O)C1=C(CSc2nc(CC)c(C)cc2C#N)OC(N)=C(C#N)C1c1ccc(OC)cc1 (configuration not stated),"inconclusive: 0.259 µM [falling, full curve, poor fit]",
CN(C)CCCN(C(=O)/C=C/c1cccs1)c1nc2c(F)cccc2s1,"inconclusive: 10 µM [rising, partial curve, poor fit]",
CCOC(=O)c1[nH]c(C)c(CC(C)C)c1C,,inconclusive: 0.411%
Cc1ccc(S(=O)(=O)NCCc2cc3ccc(C)c(C)c3[nH]c2=O)cc1,,inactive
CCOC(=O)[C@H]1[C@H]2COc3ccc(C)cc3[C@@H]2N2C(=O)CN(Cc3ccc(Cl)cc3)C(=O)[C@@]12C,,inconclusive: -0.496%
O=C(CNC(=O)c1cccc(-n2cnnn2)c1)Nc1ccc(F)c(F)c1,,inactive
COc1ccc(C(=O)Nc2ccc3c(c2)OCO3)cc1OC,,inconclusive: -21%
CCOc1ccc(NC(=S)NNC(=O)CC(C)O)cc1 (configuration not stated),,inconclusive: 1.18%
Cc1ccc(-c2csc(NC(=O)c3ccc(F)cc3)c2C(=O)O)cc1,"inconclusive: 22.4 µM [falling, partial curve]",
O=C(c1ccc(F)cc1)[C@@H]1[C@@H](C(=O)c2ccccc2)[C@@]2(C(=O)Nc3ccccc32)[C@H]2c3ccccc3C=CN12,,inconclusive: 1%

# From PubChem BioAssay AID493014 (National Center for Advancing Translational Sciences (NCATS), 2011)
